According to PMC6880422:
The exact form of at least one protein or probe is not confirmed. Protein sequences can lack the tags named with them.

Legend:
[1] = molecular target: T1, His6-PhoP (Saccharopolyspora erythraea) (UniProt A4FQ02); experiment: DNase I footprinting; details: 4.8 ug PhoP, 200 ng probe in 40 uL; footprinting: Beyotime EMSA buffer, 25 C, 30 min; recombinant protein; protein details: His6; label: FAM (Methods also say biotin-labeled); probe letters rebuilt from the primers and the genome
T1 sequence (looked up, limits assumed): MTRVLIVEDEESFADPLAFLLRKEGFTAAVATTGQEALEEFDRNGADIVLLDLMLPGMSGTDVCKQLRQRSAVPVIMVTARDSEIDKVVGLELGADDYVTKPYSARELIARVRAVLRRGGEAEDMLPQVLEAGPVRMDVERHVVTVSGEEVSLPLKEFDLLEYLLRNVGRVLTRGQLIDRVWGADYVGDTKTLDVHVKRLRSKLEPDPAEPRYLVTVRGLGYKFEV

[2] = molecular target: T1, His6-PhoP (Saccharopolyspora erythraea); experiment: EMSA; details: EMSA: 10 mM Tris-HCl pH 8.0, 25 mM MgCl2, 50 mM NaCl, 1 mM DTT, 1 mM EDTA, 0.01% NP-40, 50 ug/mL poly[d(I-C)], 10% glycerol, 25 C, 20 min, recombinant protein, protein details: His6, label: biotin (universal primer S10), probe letters rebuilt from the primers and the genome

AGCCAGTGGCGATAAGATAGCGCGGAGCTTGCCGCCCAGCGCCTTGGCGTAGTCGCCCATGTGGCGTTTCTCCGTTTCATTCGCCCCGTCAGCCGATACCGGATGCCGAGGAGGCAAGTTCAGATCGATACGGAGAGTAATGTTCGCTCGCGAGCGTCACCAGGTCAAGTTGGTCTTCGTTCGCAGGGGGGCGAGTACCACCACACCACCCGGACGATTGACCCGCACGCATTGATAGCGTACAACGCGGGCCCGGCGGACACCCTGCGGTGCGGCTTTCACCAGCGGCACCGGCGCGGATCCTCCCGTCGCGGAACACCCGTCCTCACCAGCCGGCCGACAGCCGTCGGGAGAGGACCCCTTATCGCCACTGGCT (double strand) [bldD promoter footprinting probe]
binding result [1]: binds

AGCCAGTGGCGATAAGATAGCGCGGAGCTTGCCGCCCAGCGCCTTGGCGTAGTCGCCCATGTGGCGTTTCTCCGTTTCATTCGCCCCGTCAGCCGATACCGGATGCCGAGGAGGCAAGTTCAGATCGATACGGAGAGTAATGTTCGCTCGCGAGCGTCACCAGGTCAAGTTGGTCTTCGTTCGCAGGGGGGCGAGTACCACCACACCACCCGGACGATTGACCCGCACGCATTGATAGCGTACAACGCGGGCCCGGCGGACACCCTGCGGTGCGGCTTTCACCAGCGGCACCGGCGCGGATCCTCCCGTCGCGGAACACCCGTCCTCACCAGCCGGCCGACAGCCGTCGGGAGAGGACCCCTTATCGCCACTGGCT (double strand) [PbldD]
binding result ([2]; 1 uM PhoP, 200-fold excess sperm DNA): binds

AGCCAGTGGCGATAAGCGAACACAAAGCACCAGGCCGGGTCGAAGACGTCCCGGCGCCCTACACCAGTCTGCGTTGCAGCGACTGCGGATGGATCGAGAAGAACTCACGCAAGAGCCAAGCTGAGTTCGTCTGCGTGTCCTGCGGTTTCACCTGCAACGCTGACCTGAACGCCTCGATCAACGTCGCGGCAGGACATGCCGGAGGGACAACAACGACCCCTGGTCGTTCACGTGTCCGTGAACCTCAACTCGCCCTCCGGTGAGTTGGAATCCCCCGCCTCCAGGCGAGGGAGGATGTCAAATCCAGAAGACACCGGTGGTCTTCGACGGGGAGCTGACGCTGCTGCCCATGGGGCAGTACCTGCACCTTATCGCCACTGGCT (double strand) [sace_0712 promoter]
binding result ([2]; 0.2-0.8 uM PhoP, poly[d(I-C)]): binds
